Measurements reported in PubChem BioAssay AID1508597 (Cure First, 2020)

Aim: 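Genes whose silencing sensitises or protects ovarian cancer cells against rucaparib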 (primary screen)
System: human ovarian carcinoma lines grown from tumours: OCI-P5x (papillary serous) and OCI-C5x (clear cell)
Reagent: siRNA pool against human genes, 1.25 pmol siRNA per well
Timing: 72 h or 96 h, depending on the cell culture
Treatment: rucaparib 20 µM (about IC30) or vehicle, present until read-out
Measurement: 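Luminescent ATP-based viability assay read 72 or 96 h after transfection, depending on culture, given as normalised percent viability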
Direction: viability, normalised: higher = more viable cells remaining
Rule for the call: 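a well counts as a hit if its normalised viability is under 80 percent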
Meaning of the calls: active = viability under 80%; inactive = viability 80% or more
The whole screen tested about 2,100 reagents; below is a random part of them. 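Calls flag viability under 80% in either arm, not effects specific to rucaparib; the reference for percent is not stated.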 Entries without a mark were called inactive. No sequences are given here. Not given: the 100% reference.

With ZAR1 (zygote arrest 1), rucaparib or vehicle Rucaparib, cell line OCI-C5x (clear cell), technical replicate 1, the values are viability, normalised (%) = 84.8. For ZAR1 (zygote arrest 1), rucaparib or vehicle Rucaparib, cell line OCI-C5x (clear cell), technical replicate 2 the deposit lists viability, normalised (%) = 55.7 (active). ZAR1 (zygote arrest 1), rucaparib or vehicle Rucaparib, cell line OCI-C5x (clear cell), technical replicate 3 scored viability, normalised (%) = 52.8 (active). ZAR1 (zygote arrest 1), rucaparib or vehicle Rucaparib, cell line OCI-P5x (serous), technical replicate 1 gave viability, normalised (%) = 96.3. ZAR1 (zygote arrest 1), rucaparib or vehicle Rucaparib, cell line OCI-P5x (serous), technical replicate 2 gave viability, normalised (%) = 90. ZAR1 (zygote arrest 1), rucaparib or vehicle Rucaparib, cell line OCI-P5x (serous), technical replicate 3 gave viability, normalised (%) = 82.3.

ZAR1 (zygote arrest 1), rucaparib or vehicle Vehicle, cell line OCI-C5x (clear cell), technical replicate 1 gave viability, normalised (%) = 58.8 (active). With ZAR1 (zygote arrest 1), rucaparib or vehicle Vehicle, cell line OCI-C5x (clear cell), technical replicate 2 the deposit lists viability, normalised (%) = 62.7 (active). ZAR1 (zygote arrest 1), rucaparib or vehicle Vehicle, cell line OCI-C5x (clear cell), technical replicate 3 scored viability, normalised (%) = 65.8 (active). For ZAR1 (zygote arrest 1), rucaparib or vehicle Vehicle, cell line OCI-P5x (serous), technical replicate 1, the values are viability, normalised (%) = 75.8 (active). With ZAR1 (zygote arrest 1), rucaparib or vehicle Vehicle, cell line OCI-P5x (serous), technical replicate 2, the entry reads viability, normalised (%) = 65.6 (active). For ZAR1 (zygote arrest 1), rucaparib or vehicle Vehicle, cell line OCI-P5x (serous), technical replicate 3, the entry reads viability, normalised (%) = 81.7.

Taken from above:
ZAR1 (zygote arrest 1), rucaparib or vehicle Rucaparib, cell line OCI-P5x (serous), technical replicate 3, viability, normalised (%) → 82.3
For “viability, normalised (%)”, ZAR1 (zygote arrest 1), rucaparib or vehicle Vehicle, cell line OCI-C5x (clear cell), technical replicate 1 is entered as 58.8 (active)
ZAR1 (zygote arrest 1), rucaparib or vehicle Rucaparib, cell line OCI-P5x (serous), technical replicate 1, viability, normalised (%) = 96.3

Continued:
With TSSK6 (testis specific serine kinase 6), rucaparib or vehicle Rucaparib, cell line OCI-C5x (clear cell), technical replicate 1, the entry reads viability, normalised (%) = 64.1 (active). With TSSK6 (testis specific serine kinase 6), rucaparib or vehicle Rucaparib, cell line OCI-C5x (clear cell), technical replicate 2, the entry reads viability, normalised (%) = 88.6. TSSK6 (testis specific serine kinase 6), rucaparib or vehicle Rucaparib, cell line OCI-C5x (clear cell), technical replicate 3 scored viability, normalised (%) = 68.1 (active). With TSSK6 (testis specific serine kinase 6), rucaparib or vehicle Rucaparib, cell line OCI-P5x (serous), technical replicate 1, the values are viability, normalised (%) = 91.5. For TSSK6 (testis specific serine kinase 6), rucaparib or vehicle Rucaparib, cell line OCI-P5x (serous), technical replicate 2, the values are viability, normalised (%) = 109. With TSSK6 (testis specific serine kinase 6), rucaparib or vehicle Rucaparib, cell line OCI-P5x (serous), technical replicate 3, the values are viability, normalised (%) = 94.8.

With TSSK6 (testis specific serine kinase 6), rucaparib or vehicle Vehicle, cell line OCI-C5x (clear cell), technical replicate 1, the entry reads viability, normalised (%) = 59.9 (active). TSSK6 (testis specific serine kinase 6), rucaparib or vehicle Vehicle, cell line OCI-C5x (clear cell), technical replicate 2 scored viability, normalised (%) = 57.9 (active). With TSSK6 (testis specific serine kinase 6), rucaparib or vehicle Vehicle, cell line OCI-C5x (clear cell), technical replicate 3 the deposit lists viability, normalised (%) = 52.3 (active). With TSSK6 (testis specific serine kinase 6), rucaparib or vehicle Vehicle, cell line OCI-P5x (serous), technical replicate 1, the values are viability, normalised (%) = 97.6. TSSK6 (testis specific serine kinase 6), rucaparib or vehicle Vehicle, cell line OCI-P5x (serous), technical replicate 2 gave viability, normalised (%) = 77.2 (active). With TSSK6 (testis specific serine kinase 6), rucaparib or vehicle Vehicle, cell line OCI-P5x (serous), technical replicate 3, the values are viability, normalised (%) = 78.5 (active).
